# Experimental data as given in US20140242084A1 (published 2014).
# B1: recombinant human cANGPTL4 (C-terminal region of angiopoietin-like 4) (ligand, UniProt Q9BY76 186-406, looked up)
# chain: RDCQELFQVGERQSGLFEIQPQGSPPFLVNCKMTSDGGWTVIQRRHDGSVDFNRPWEAYKAGFGDPHGEFWLGLEKVHSITGDRNSRLAVQLRDWDGNAELLQFSVHLGGEDTAYSLQLTAPVAGQLGATTVPPSGLSVPFSTWDQDHDLRRDKNCAKSLSGGWWFGTCSHSNLNGQYFRSIPQQRQKLKKGIFWKTWRGRYYPLQATTMLIQPMAAEAAS
# notes: domain: c terminal region; the tag is not specified; also called rh-cANGPTL4; rhcANGPTL4
# Target: recombinant integrin α5β1
# Experiment: figure legend: SPR sensorgrams and PLA
binder,measurement,value
B1,binding,binds

# Results are given in words; binding and its absence hold for the method and conditions named. Binding calls can cover weak binding; strength is not graded here.
